From paper PMC11589678
Results are given in words; binding and its absence hold for the method and conditions named. Binding seen in cells or lysates may run through a third protein. These calls come from enrichment with a bait or labelling near it, and not all partners need be listed.

Amino acid sequences for entries named in this document (tags omitted). A change or cut given only in a name is not applied to a line headed by its entry. Residues count along the entry.
UniProt P0DF96, residues 34-571: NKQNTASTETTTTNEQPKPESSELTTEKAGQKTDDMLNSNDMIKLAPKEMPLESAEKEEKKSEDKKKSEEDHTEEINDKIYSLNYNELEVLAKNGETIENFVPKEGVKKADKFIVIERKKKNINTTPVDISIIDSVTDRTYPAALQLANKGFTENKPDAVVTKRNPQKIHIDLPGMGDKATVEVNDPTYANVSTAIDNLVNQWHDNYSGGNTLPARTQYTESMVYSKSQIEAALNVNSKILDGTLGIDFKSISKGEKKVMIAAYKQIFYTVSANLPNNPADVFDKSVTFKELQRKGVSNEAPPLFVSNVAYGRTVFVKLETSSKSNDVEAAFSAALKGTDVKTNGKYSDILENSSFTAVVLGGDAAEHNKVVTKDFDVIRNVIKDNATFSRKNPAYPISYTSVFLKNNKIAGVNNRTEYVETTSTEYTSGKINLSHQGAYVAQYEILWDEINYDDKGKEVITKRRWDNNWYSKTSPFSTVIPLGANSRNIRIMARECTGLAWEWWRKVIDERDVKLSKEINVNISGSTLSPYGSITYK
UniProt P02649, residues 19-317: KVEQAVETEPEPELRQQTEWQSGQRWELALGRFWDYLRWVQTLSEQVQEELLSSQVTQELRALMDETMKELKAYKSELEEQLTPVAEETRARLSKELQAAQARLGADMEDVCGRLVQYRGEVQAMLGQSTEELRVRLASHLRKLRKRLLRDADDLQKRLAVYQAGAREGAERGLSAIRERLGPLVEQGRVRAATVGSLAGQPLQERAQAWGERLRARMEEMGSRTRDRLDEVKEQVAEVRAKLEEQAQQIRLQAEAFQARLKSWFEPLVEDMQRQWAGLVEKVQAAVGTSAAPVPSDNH
UniProt P10909: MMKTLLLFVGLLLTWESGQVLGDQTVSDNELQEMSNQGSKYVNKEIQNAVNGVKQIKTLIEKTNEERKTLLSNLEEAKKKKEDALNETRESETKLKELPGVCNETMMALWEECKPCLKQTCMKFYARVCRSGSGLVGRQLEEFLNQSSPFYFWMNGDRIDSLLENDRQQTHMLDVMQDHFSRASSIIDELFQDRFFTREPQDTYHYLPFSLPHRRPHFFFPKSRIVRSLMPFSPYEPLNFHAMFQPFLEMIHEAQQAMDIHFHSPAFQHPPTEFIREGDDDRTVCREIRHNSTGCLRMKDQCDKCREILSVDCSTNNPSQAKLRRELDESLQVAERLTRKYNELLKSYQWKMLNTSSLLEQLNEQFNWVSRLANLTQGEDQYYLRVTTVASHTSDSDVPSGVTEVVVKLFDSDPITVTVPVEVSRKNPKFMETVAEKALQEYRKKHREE

Target: streptolysin O (Streptococcus pyogenes (group A Streptococcus)) (UniProt P0DF96)
Experiment: affinity purification with mass spectrometry; 40 ug tagged bait immobilised on Strep-Tactin Sepharose; incubated with undiluted, 50% or 10% pooled human plasma (in PBS) at 37 °C, 500 rpm, 2 h; washed with ice-cold PBS, eluted with 5 mM biotin; tagged GFP and SCPA as reference baits; LC-MS/MS (DDA and DIA), MiST score and t-tests; only the target purified

Molecule | binding
apolipoprotein E (from UniProt P02649 19-317) | binds
clusterin (from UniProt P10909 23-227; P10909 228-449) | binds
plasma protease C1 inhibitor (protein, UniProt P05155 23-500) NPNATSSSSQDPESLQDRGEGKVATTVISKMLFVEPILEVSSLPTTNSTTNSATKITANTTDEPTTQPTTEPTTQPTIQPTQPTTQLPTDSPTQPTTGSFCPGPVTLCSDLESHSTEAVLGDALVDFSLKLYHAFSAMKKVETNMAFSPFSIASLLTQVLLGAGENTKTNLESILSYPKDFTCVHQALKGFTTKGVTSVSQIFHSPDLAIRDTFVNASRTLYSSSPRVLSNNSDANLELINTWVAKNTNNKISRLLDSLPSDTRLVLLNAIYLSAKWKTTFDPKKTRMEPFHFKNSVIKVPMMNSKKYPVAHFIDQTLKAKVGQLQLSHNLSLVILVPQNLKHRLEDMEQALSPSVFKAIMEKLEMSKFQPTLLTLPRIKVTTSQDMLSIMEKLEFFDFSYDLNLCGLTEDPDLQVSAMQHQTVLELTETGVEAAAASAISVARTLLVFEVQQPFLFVLWDQQHKFPVFMGRVYDPRA | binds
